PubChem BioAssay AID652272 – Drosophila RNAi Screening Center | 2013
The screen tested about 21,000 reagents; shown is an unselected part of those with a known target gene and a result. Of all reagents, 503 (2.4%) got an active call. 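Raw plate light values, not normalised; calls rest on replicate z-scores that were not deposited; hits include reporter decreases as well as increases.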 Names joined by + are all predicted targets of the reagent. Not stated in the record: the amount of reagent, the time to read-out.

Assay: 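Genes whose knock-down decreases or increases Hedgehog reporter output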 (primary screen)
Cell system: Drosophila clone 8 (Cl8) cells
Reagent: long dsRNA against Drosophila genes
Measurement: 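Plate reader light from a firefly reporter under a ptc promoter fragment that responds to Hedgehog, with Renilla light as transfection reference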
Scale: firefly Hh reporter signal: higher = more ptc reporter light; Renilla reference signal: higher = more Renilla control light
Hit rule: 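Called a hit if the two-replicate mean z-score lies below -2 or above +3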
Calls: active = hit: reporter lowered or raised; inactive = not a hit

target | DRSC id | firefly Hh reporter signal, replicate 1 | firefly Hh reporter signal, replicate 2 | firefly Hh reporter signal, replicate 3 | Renilla reference signal, replicate 1 | Renilla reference signal, replicate 2 | Call
px (plexus) | DRSC04708 | 39072 | 61111 | – | 1896 | 2733 | inactive
eyg (eyegone) | DRSC11344 | 83481 | 13936 | 7458 | 2887 | 233 | inactive
slif (slimfast) | DRSC11635 | 1.64e5 | 1.26e5 | – | 6960 | 5147 | inactive
slam (slow as molasses) | DRSC03240 | 1.10e5 | 47373 | – | 3069 | 3722 | inactive
Pcyt2 (Phosphocholine cytidylyltransferase 2) | DRSC08531 | 1.40e5 | 1.17e5 | – | 5666 | 5186 | inactive
mRpL14 (mitochondrial ribosomal protein L14) | DRSC18597 | 51408 | 2.10e5 | – | 1223 | 7648 | inactive
CG4390 | DRSC15572 | 86919 | 58521 | – | 3792 | 2360 | inactive
Ir51a (Ionotropic receptor 51a) | DRSC06256 | 99946 | 58176 | – | 2929 | 4496 | inactive
CG12590 | DRSC12216 | 76629 | 1.13e5 | – | 2673 | 3317 | inactive
Hmx (H6-like-homeobox) | DRSC15307 | 84749 | 79200 | – | 2809 | 583 | inactive
Hmx (H6-like-homeobox) | DRSC15884 | 1.32e5 | 1.70e5 | – | 1946 | 3420 | inactive
Hmx (H6-like-homeobox) | DRSC16706 | 95840 | 80007 | – | 2085 | 486 | inactive
CG13766 | DRSC02271 | 87381 | 35121 | – | 1641 | 3949 | inactive
Dtwd2 + Obp84a | DRSC12603 | 95769 | 1.38e5 | – | 4251 | 3860 | inactive
Ars2 (Arsenic resistance protein 2) | DRSC04893 | 98662 | 1.18e5 | – | 5393 | 6272 | inactive
CG32214 | DRSC09613 | 3.43e5 | – | – | 7222 | – | inactive
Aatf (Apoptosis antagonizing transcription factor) | DRSC02131 | 1.01e5 | 58680 | – | 2576 | 6464 | inactive
CG8301 | DRSC16405 | 78410 | 80739 | – | 2689 | 1948 | inactive
mu2 (mutator 2) | DRSC08726 | 1.59e5 | 1.26e5 | – | 7465 | 5637 | inactive
CG32040 | DRSC08981 | 1.71e5 | 3.55e5 | – | 4807 | 14412 | inactive
Rpp20 + CG33932 | DRSC19467 | 75303 | 1.64e5 | – | 985 | 7492 | inactive
CG5079 | DRSC15713 | 2.57e5 | 51735 | – | 15200 | 1909 | inactive
CG7632 | DRSC11842 | 86560 | 1.04e5 | – | 3296 | 3188 | inactive
CG9300 | DRSC11064 | 82473 | 96709 | – | 4765 | 4800 | inactive
CG2065 | DRSC06813 | 1.28e5 | 89384 | – | 2006 | 5315 | active
S-Lap3 (Sperm-Leucylaminopeptidase 3) | DRSC10956 | 55092 | 76560 | – | 2393 | 2835 | inactive
TTLL1A (Tubulin tyrosine ligase-like 1A) | DRSC20121 | 81750 | 95949 | – | 1889 | 2071 | inactive
CG40045 | DRSC21232 | 7.72e5 | 2.66e5 | – | 44857 | 6939 | inactive
CG15529 | DRSC15066 | 1.02e5 | 69152 | – | 4406 | 641 | inactive
r (rudimentary) | DRSC19813 | 84517 | 2.04e5 | – | 2663 | 8512 | inactive
r (rudimentary) | DRSC19814 | 78035 | 2.18e5 | – | 2617 | 9418 | inactive
ana2 (anastral spindle 2) | DRSC05952 | 64884 | 55666 | – | 2759 | 2188 | inactive
SCCRO (Squamous cell carcinoma-related oncogene) | DRSC10844 | 88472 | – | – | 2887 | 3457 | inactive
Nup93-2 (Nucleoporin 93kD-2) | DRSC16221 | 85149 | 68892 | – | 3557 | 2856 | inactive
larp (La related protein) | DRSC14728 | 1.75e5 | 1.44e5 | – | 5324 | 4018 | inactive
larp (La related protein) | DRSC16984 | 1.25e5 | 1.29e5 | – | 3904 | 3364 | inactive
Wnt10 (Wnt oncogene analog 10) | DRSC00990 | 5.67e5 | 2.23e5 | – | 27612 | 8899 | inactive
Wnt10 (Wnt oncogene analog 10) | DRSC02797 | 1.14e5 | 59066 | – | 2899 | 5703 | inactive
CG31806 | DRSC02787 | 1.04e5 | 55659 | – | 2733 | 5351 | inactive

Ordered by “firefly Hh reporter signal, replicate 2” (low to high): some entries from above
target | DRSC id | firefly Hh reporter signal, replicate 1 | firefly Hh reporter signal, replicate 2 | firefly Hh reporter signal, replicate 3 | Renilla reference signal, replicate 1 | Renilla reference signal, replicate 2 | Call
Ir51a (Ionotropic receptor 51a) | DRSC06256 | 99946 | 58176 | – | 2929 | 4496 | inactive
Hmx (H6-like-homeobox) | DRSC15307 | 84749 | 79200 | – | 2809 | 583 | inactive
Hmx (H6-like-homeobox) | DRSC16706 | 95840 | 80007 | – | 2085 | 486 | inactive
CG12590 | DRSC12216 | 76629 | 1.13e5 | – | 2673 | 3317 | inactive
Hmx (H6-like-homeobox) | DRSC15884 | 1.32e5 | 1.70e5 | – | 1946 | 3420 | inactive
